Some of the results follow. These are further read-outs of the screen, such as a control signal, another cell line or another target. No call is given for them. Compounds called inactive in the main read-out are mostly missing here. The note in brackets gives the kind of curve behind each potency; many fits are weak.
Test: qHTS Assay for Lipid Storage Modulators in Drosophila S3 Cells;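 for cell number change: cells counted by Cell Tracker Red CMTPX staining in the red channel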
Details: BODIPY lipid droplet fluorescence, 18-24 h; for cell number change: measured here: cell count max response, cells fed with added oleic acid
Method in brief: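 Drosophila S3 cells loaded with oleic acid (400 uM, as added) and compounds at several concentrations; lipid droplets imaged by 488-nm laser-scanning cytometry, 500–530 nm intensity and object ratio to cell channel. Percent activity normalized to 20 uM Triacsin C.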

[1] = measured here: cell number channel AC50, cells fed with added oleic acid
[2] = measured here: lipid fluorescence (Fed channel) AC50, cells fed with added oleic acid

| Structure (SMILES) | cell number change | AC50 [1] | AC50 [2] |
| --- | --- | --- | --- |
| CCc1ccc(CN(C)C(C)C(=O)Nc2ccc(S(=O)(=O)N3CCCC3)cc2)cc1 (stereo not drawn) | -52.9% | 18.4 µM [falling, partial curve] | 5.8 µM [falling, partial curve] |
| CSc1nnc(SCC(=O)N(C)c2c(N)n(Cc3ccccc3)c(=O)[nH]c2=O)s1 | 8.72% |  | 29.1 µM [falling, single point] |
| COc1ccc(CN(CC(=O)NCc2ccc3c(c2)OCO3)C(=O)c2csnn2)cc1 | 30.4% | 9.2 µM [rising, partial curve, poor fit] |  |
| CCCS(=O)(=O)N1CCCC(C(=O)NCCCOC(C)C)C1 (stereo not drawn) | -7.28% | 0.00517 µM [falling, full curve, poor fit] |  |
| Cc1c(CC(=O)N2C[C@H]3C[C@@H](C2)c2cccc(=O)n2C3)c(=O)oc2cc3occ(C(C)(C)C)c3cc12 | -9.06% |  |  |
| O=C(CSCc1ccccc1Br)N/N=C/c1ccc2c(c1)OCO2 | -10.1% |  |  |
| CC1(NC(=O)/C=C/c2nc3ccccc3s2)CCS(=O)(=O)C1 (stereo not drawn) | -24.8% |  | 29.1 µM [falling, single point] |
| Cc1[nH]nc2c1C1(CCN(C(=O)c3ccccc3)CC1)C(C#N)=C(N)O2 | 25.7% | 0.259 µM [falling, full curve] | 0.731 µM [falling, full curve] |
| O=C(OCc1cc(=O)n2c(n1)sc1ccccc12)c1ccc(O)cc1 | 7.29% |  | 29.1 µM [falling, single point] |
| O=C(Nc1cccc(Cl)c1)c1ccc2c(c1)OCCO2 | 1.8% |  | 0.82 µM [falling, full curve] |
| COc1cscc1C(N)=O | 31.8% | 0.259 µM [rising, full curve, poor fit] | 16.4 µM [rising, partial curve, poor fit] |
| COc1ccc(NS(=O)(=O)c2cc(NC(=O)c3ccccc3F)ccc2N2CCCC2)cc1 | 7.26% |  |  |
| O=C(N/N=C/c1c(F)cccc1Cl)c1cc(C2CC2)[nH]n1 | -2.75% |  |  |
| O=C(OCc1nnc(-c2ccccc2)o1)c1ccc2c(c1)OCO2 | -18.3% |  | 29.1 µM [rising, single point] |
| CN(C)CCN(C(=O)c1ccc(N2C(=O)CCC2=O)cc1)c1nc2cc3c(cc2s1)OCCO3 | 30.4% |  |  |
| CC(=O)N1N=C(c2cccs2)CC1c1ccco1 (stereo not drawn) | 18% |  | 0.259 µM [falling, full curve, poor fit] |
| CN(C)c1ccc(NC(=O)c2ccc(N3CCOCC3)nc2)cc1 |  |  | 3.66 µM [rising, full curve] |
| O=C(CSc1ccc(S(=O)(=O)N2CCOCC2)cn1)Nc1ccc(F)c(F)c1 | -25.6% | 0.259 µM [falling, full curve, poor fit] |  |

2 neighbouring records out of the list so far, quoted:

| Structure (SMILES) | cell number change | AC50 [1] | AC50 [2] |
| --- | --- | --- | --- |
| O=C(Nc1cccc(Cl)c1)c1ccc2c(c1)OCCO2 | 1.8% |  | 0.82 µM [falling, full curve] |
| COc1cscc1C(N)=O | 31.8% | 0.259 µM [rising, full curve, poor fit] | 16.4 µM [rising, partial curve, poor fit] |

Reference: PubChem BioAssay AID2685 (National Center for Advancing Translational Sciences (NCATS), 2010)
